Test results reported in paper doi:10.1101/2021.07.20.453058 (bioRxiv, 2021).

Target: T1, FLAG-KaiC1 (Synechocystis sp. PCC 6803) (UniProt P74646)
T1 sequence: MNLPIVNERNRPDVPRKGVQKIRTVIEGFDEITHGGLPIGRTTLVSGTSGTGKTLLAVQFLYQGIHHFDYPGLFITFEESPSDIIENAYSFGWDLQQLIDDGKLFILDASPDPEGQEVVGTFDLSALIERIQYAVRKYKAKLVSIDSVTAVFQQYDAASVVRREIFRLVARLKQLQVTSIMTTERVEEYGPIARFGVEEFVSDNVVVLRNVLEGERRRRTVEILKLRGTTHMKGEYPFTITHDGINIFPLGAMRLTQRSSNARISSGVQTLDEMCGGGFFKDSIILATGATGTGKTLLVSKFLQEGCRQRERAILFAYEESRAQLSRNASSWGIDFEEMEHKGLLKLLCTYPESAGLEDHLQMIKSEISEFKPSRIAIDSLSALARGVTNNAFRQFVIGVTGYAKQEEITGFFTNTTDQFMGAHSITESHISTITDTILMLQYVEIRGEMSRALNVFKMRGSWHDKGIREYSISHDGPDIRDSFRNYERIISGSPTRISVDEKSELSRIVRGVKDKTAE
Assay: affinity purification with mass spectrometry

binding: no binding
Substance: KaiA3 (Sll0485), endogenous

Results are given in words; binding and its absence hold for the method and conditions named. In cells and extracts the contact can be indirect. A yes stands for co-enrichment or nearness to the bait. Other partners may have been found. A no says only that the protein was not detected with the bait. Sequences can lack the tags named with a protein.
